Test results published in PubChem BioAssay AID662 (National Center for Advancing Translational Sciences (NCATS), 2007).
Some of the results follow. Further columns of the screen follow, without active or inactive calls. The list favours compounds with an active or inconclusive main result. Words in brackets tell the shape of the fitted curve; partial curves, single points and poor fits give uncertain potencies.

Assay: Cell signaling CRE-BLA (Fsk stim)
Details: CHO CRE-bla reporter (cAMP response element driving beta-lactamase), forskolin EC10, beta-lactamase ratio; measured here: 460 nm blue channel
Method in brief: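 Cells were plated overnight at 37 °C, exposed to compound titrations plus EC10 NKH 477 for 3 h, then given CCF4 dye for 2 h at room temperature. Blue/green (460/530 nm) ratio was converted to %Activity and AC50 values calculated.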

SMILES | AC50
C=CCn1c(=O)c2ccccc2n2c(SCc3cc(=O)n4ccsc4n3)nnc12 | 10 µM [rising, single point]
Cc1csc(OCc2ccc(C#N)cc2)n1 | 0.0794 µM [falling, full curve, poor fit]
CCCC(=O)c1cc2ccccc2oc1=O | 0.0631 µM [rising, full curve]
COc1cccc(-c2nc(N3CCNCC3)c3ccccc3n2)c1 | 5.01 µM [rising, full curve, poor fit]
Clc1ccc(OCCN2CCN(c3ncnc4sccc34)CC2)cc1 | 0.0398 µM [falling, full curve, poor fit]
CCCCCCC1C(C#N)=C(N)OC2=C1C(=O)CCC2 (configuration not stated) | 12.6 µM [rising, single point]
O=C(CCC(=O)c1ccc[nH]1)c1ccc(Cl)cc1 | 1.58 µM [falling, partial curve, poor fit]
COc1ccc(CC(=O)Nc2cccc(-c3nnc(-c4cccc(C)c4)o3)c2)cc1OC | 1.26 µM [falling, full curve]
COc1cc(C(=O)N2CCN(C(=O)C(Cc3cc(C)ccc3C)NC(C)=O)CC2)cc(OC)c1OC (configuration not stated) | 2.51 µM [falling, partial curve]
c1ccc(CN2CCN(c3ncnc4nc[nH]c34)CC2)cc1 | 12.6 µM [rising, single point]
CCSc1nnc(NC(=O)c2ccc(Br)s2)s1 | 0.00316 µM [falling, full curve, poor fit]
CC1=CCC(C(=O)O)C(C(=O)O)C1 (configuration not stated) | 0.00398 µM [falling, full curve, poor fit]
Cc1c(C(=O)O)sc2nc3n(c(=O)c12)CCC(C)CC3 (configuration not stated) | 0.00398 µM [falling, full curve, poor fit]
Cc1ccc(NC(=O)CN2C(=O)NC(Cc3ccccc3)C2=O)cc1 (configuration not stated) | 0.00631 µM [falling, full curve]
C=CCN1CN(S(=O)(=O)c2cccs2)c2nc3ccccc3nc21 | 12.6 µM [rising, partial curve]
Cc1ccc(S(=O)(=O)Nc2nc3ccccc3nc2NCc2ccco2)cc1C | 25.1 µM [rising, single point]
COc1ccc(NC(=O)C2CCCN(S(=O)(=O)c3cccc4cccnc34)C2)cc1OC (configuration not stated) | 2.51 µM [rising, partial curve]
O=C(OCCN1C(=O)c2ccccc2C1=O)c1cc(=O)[nH]c2ccccc12 | 10 µM [rising, partial curve]
Cc1cccc(OCc2nnc(SCC(=O)N(C(C)C)C(C)C)n2Cc2ccco2)c1C | 10 µM [rising, partial curve]
Cc1nnc(OCc2nc3ccccc3n2C)c2ccccc12 | 3.98 µM [rising, partial curve]
COc1ccc(C(c2nnnn2Cc2ccc(F)cc2)N2CCN(c3ccccc3)CC2)cc1 (configuration not stated) | 1.58 µM [falling, partial curve, poor fit]

SMILES | AC50
COC(=O)c1sc(NC(=O)c2ccc(OC)cc2OC)nc1C | 25.1 µM [rising, single point]
COc1cc(OC)nc(NC(=O)CSc2nc3ccccc3[nH]2)n1 | 15.8 µM [rising, single point]
COc1ccc(-c2noc(CCC(=O)N(C)c3cccc(C)c3)n2)cc1 | 20 µM [rising, partial curve, poor fit]
OC1CCCN(c2c3c(nc4cc(-c5cccc(Cl)c5)nn24)CCC3)C1 (configuration not stated) | 12.6 µM [rising, partial curve]
COC(=O)[C@@]1(Cc2ccc(OC)cc2)[C@H]2c3cc(C(=O)N4CCCC4)n(Cc4ccc(O)c(OC)c4)c3C[C@H]2CN1C(=O)c1ccccc1 | 2.51 µM [rising, full curve]
O=C(NCC(c1cccnc1)N1CCN(c2ccc(F)cc2)CC1)OCc1ccccc1 (configuration not stated) | 0.1 µM [falling, full curve]
COc1ccc(S(=O)(=O)N(CCN2CCOCC2)Cc2cc(OC)ccc2OC)cc1 | 31.6 µM [rising, single point]
COc1cccc(OCCOc2cccc(/C=N/n3cnnc3)c2)c1 | 25.1 µM [rising, single point]
Cc1ccc(Cn2ccc(NC(=O)c3cc(-c4ccco4)on3)n2)cc1 | 0.0316 µM [falling, full curve, poor fit]
CCC(c1nnc(SCC(=O)Nc2nnc(-c3ccccc3)o2)o1)N(C)C (configuration not stated) | 0.251 µM [falling, full curve, poor fit]
CCOc1ccc(CCNC(=O)Cn2c(-c3nonc3N)nc3ccccc32)cc1OCC | 0.794 µM [rising, full curve]
N#CCCn1c(=O)c(-c2ccccc2)nc2cnc(N3CCOCC3)nc21 | 3.98 µM [rising, partial curve]
O=C(OCc1nc2ccccc2s1)C1CCN(S(=O)(=O)c2cccs2)CC1 | 3.98 µM [falling, single point]
Nc1c(C(=O)c2ccc(Br)s2)oc2ccccc12 | 12.6 µM [rising, single point]
O=C(c1ccco1)N1CCN(C(=O)C2CCCO2)CC1 (configuration not stated) | 0.01 µM [falling, full curve, poor fit]
O=C(CSc1nc2ncc(Br)cc2[nH]1)Nc1ccc2c(c1)OCO2 | 0.126 µM [falling, full curve, poor fit]
c1ccc(Cn2nnc3c(N4CCCC4)ncnc32)cc1 | 12.6 µM [rising, partial curve]
O=C(Nc1cccc(C(F)(F)F)c1)C1CCCN1S(=O)(=O)c1cccc2cccnc12 (configuration not stated) | 0.01 µM [falling, full curve, poor fit]
CN(C)CCCN1C(=O)C(=O)/C(=C(/O)c2ccc3c(c2)OCCO3)C1c1ccco1 (configuration not stated) | 25.1 µM [rising, single point]
CC(C)Cc1nnc(NC(=O)c2ccncc2)s1 | 0.251 µM [falling, partial curve]
c1ccc2c(-c3ccncc3)c[nH]c2c1 | 15.8 µM [falling, partial curve]

Ordered by length of the SMILES (ascending): part of the list above
SMILES | AC50
c1ccc2c(-c3ccncc3)c[nH]c2c1 | 15.8 µM [falling, partial curve]
Cc1ccc(Cn2ccc(NC(=O)c3cc(-c4ccco4)on3)n2)cc1 | 0.0316 µM [falling, full curve, poor fit]
CCOc1ccc(CCNC(=O)Cn2c(-c3nonc3N)nc3ccccc32)cc1OCC | 0.794 µM [rising, full curve]
